Record: PubChem BioAssay AID504784 (Drosophila RNAi Screening Center, 2011)
Purpose: 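Genome-wide knock-down for genes giving too much or too little stored lipid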 (primary screen). Cells: Drosophila Kc167 embryonic cells. Knock-down reagent: long dsRNA against Drosophila genes, about 250 ng dsRNA per well. Time to read-out: 4 days. Treatment: cells fed 400 µM oleic acid bound to BSA. Detection: 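Cells imaged and segmented; ratio of lipid droplet area to nuclear area, log-transformed, then normalised as a B-score over the screen; higher means more stored lipid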. Reading the numbers: droplet/nuclear area B-score: higher = more stored lipid (overstorage).
The screen tested about 17,000 reagents; this is a random part of those with a known target gene and a result. 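Each column is one replicate's B-score; the combined score over replicates was not deposited, so single values may mislead.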 The numbers tell different reagents against one gene apart. A plus sign joins genes that one reagent is predicted to hit.

target	dsRNA no.	droplet/nuclear area B-score, replicate 1	droplet/nuclear area B-score, replicate 2	droplet/nuclear area B-score, replicate 3
GstD4	1	-1.02	-0.771	
hzg	1	-3.4	-2.49	
Cpr50Cb	1	-1.46	0.09	
CG18747	1	-0.0174	1.67	
CG7668	1	0	0.485	-0.281
Arl2	1	-0.00141	1.9	
CG9030	1	-0.0062	1.11	
LRP1	1	0.216	2.14	
NaPi-T	1		-1.15	
CG9269	1	1.01	-0.0106	
CG15099	1	-1.06	-1.84	
CG5731	1	1.41	1.22	
CG3544	1	0.0183	-0.905	
CG31680	1	5.82	0.693	
CG14143	1	0.962	1.53	
Uros1	1	0.0488	-1.47	0.44
Ppcs	1	0.507	-0.677	
CG6661	1	-1.05	-1.53	0.599
Ilp6	1	0.005	-0.399	
krimp	1	-0.349	0.229	
Alg14	1	2.19	0.396	
CG13376	1	-0.964	-2.37	
GILT3	1	0.399	-2.38	
dany	1	-1.1	3.46	
CG33284	1	0.0974	-0.012	
CG8320 + ATPCL	1	2.88	-2.17	
CG8329	1	0.94	0.223	
CG8490	1	0.411	0.389	
CG3862	1	3.82	0.227	
CG8584	1	-1.08	-1.05	
mop	1	-2.13	-0.235	-0.213
Gpo1	1	1.18	0.0335	
Pgant4	1	0.145	0.134	
Vajk2	1	0.721	-0.829	
Wnt2	1	-0.465	-0.00849	
Wnt2	2	0.213	-0.339	
CG18335	1	-0.87	0.00673	
CG13309	1	0.0966	-0.0827	
CG13070	1	0.264	-0.235	
CG11529	1	2.01	0.909	
Orco	1	-0.0164	-0.227	
Gmppa	1	-0.603	-0.718	
CG10077	1	-0.668	-1.11	
CG8176	1	-0.0591	-0.0407	
Klp67A + CG34456	1	0.193	0.00637	
CG14926	1	-2.67	-2.37	
RpLP1	1	2.99	4.25	
RpLP1	2	0.49	4.65	
Cdc45	1	0.763		
Cdc45	2	-0.00162	2.05	
Cln3	1	-0.00504	-0.186	
Cks85A	1	0.0478	-0.636	
l(1)sc	1	0.831	-0.135	
awd	1	1.47	-0.0273	
Jarid2	1	-0.154	0.533	
Gr64f	1	1.06	-0.182	
Or85f	1	0.65	-0.0652	
CG31792	1	0.00229	0.775	
CG42583	1	-0.563	-0.552	
CG10300	1	-0.193	-0.663	
CG14258	1	0.312	-1.17	
bur	1	-1.53	-0.495	
Dab	1	-0.0349	-0.327	1.8
Ublcp1	1	-0.242	1.26	
Adf1	1	-0.444	-0.371	
Adf1	2	-1.37	-0.918	
or	1	-1.23	-1.05	
CG3085	1	-0.248	-0.343	
CG5070	1	0.0614	1.58	
CG12490	1	1.12	1.27	
Kots	1	-4.2	-6.47	
sand	1	1.56	1.09	
CG13616	1	1.71	1.04	
gukh	1	-0.0402	0.0296	
gukh	2	-1.47	-0.343	
gukh	3	0.0955	-2.56	
TwdlW	1	0.576	1.19	
CG3457	1	2.31	-0.681	
CG6163	1	0.63	-0.00586	
CG11127	1	2.82	0.0844	
CG5282	1	0.0419	-0.0301	-0.33
CG32563	1	-0.535	1.53	
hpRNA:CR32207	1	1.81	-0.235	
Ir48c	1	0.922	1.81	
alphaTub67C	1	-1.41	0.211	
js	1	-0.162	-0.0189	
CG5445	1	2.06	0.0166	
CG5445	2	0.012	-0.459	
Tmtc1	1	0.464	1.71	
Tmtc1	2	-2.65	-1.49	
Tmtc1	3	1	0.602	
CG32436	1	-0.397	2.07	
CG32436	2	-1.8	-0.503	
tplus3a + tplus3b	1	-0.325	-0.803	
E(Pc)	1	-0.0363	0.237	
E(Pc)	2	0.687	0.868	
Rbfox1	1	0.595	0.0554	
Rbfox1	2	-3.44	-4.01	-1.06
Rbfox1	3	-0.448	2.08	
Rbfox1	4	0.0276	-0.492	
Rbfox1	5	0.042	-0.0217	
CG13436	1	0.466	-0.463	
dj	1	-1.59	0.673	
RpS15	1	2.41	1.37	
Ns3	1	-0.0162	2.69	-0.802

8 of these entries, reformatted.
| target | dsRNA no. | droplet/nuclear area B-score, replicate 1 | droplet/nuclear area B-score, replicate 2 | droplet/nuclear area B-score, replicate 3 |
| --- | --- | --- | --- | --- |
| Cks85A | 1 | 0.0478 | -0.636 | – |
| l(1)sc | 1 | 0.831 | -0.135 | – |
| awd | 1 | 1.47 | -0.0273 | – |
| Jarid2 | 1 | -0.154 | 0.533 | – |
| Gr64f | 1 | 1.06 | -0.182 | – |
| Or85f | 1 | 0.65 | -0.0652 | – |
| CG31792 | 1 | 0.00229 | 0.775 | – |
| CG42583 | 1 | -0.563 | -0.552 | – |
